Assay results taken from the supplement of paper PMC10849652.
This is one part of the list.

Sequences of proteins named here, by UniProt entry; tags and fusion partners are left off. A change or cut given only in a name is not applied to a line headed by its entry.
UniProt Q5T655: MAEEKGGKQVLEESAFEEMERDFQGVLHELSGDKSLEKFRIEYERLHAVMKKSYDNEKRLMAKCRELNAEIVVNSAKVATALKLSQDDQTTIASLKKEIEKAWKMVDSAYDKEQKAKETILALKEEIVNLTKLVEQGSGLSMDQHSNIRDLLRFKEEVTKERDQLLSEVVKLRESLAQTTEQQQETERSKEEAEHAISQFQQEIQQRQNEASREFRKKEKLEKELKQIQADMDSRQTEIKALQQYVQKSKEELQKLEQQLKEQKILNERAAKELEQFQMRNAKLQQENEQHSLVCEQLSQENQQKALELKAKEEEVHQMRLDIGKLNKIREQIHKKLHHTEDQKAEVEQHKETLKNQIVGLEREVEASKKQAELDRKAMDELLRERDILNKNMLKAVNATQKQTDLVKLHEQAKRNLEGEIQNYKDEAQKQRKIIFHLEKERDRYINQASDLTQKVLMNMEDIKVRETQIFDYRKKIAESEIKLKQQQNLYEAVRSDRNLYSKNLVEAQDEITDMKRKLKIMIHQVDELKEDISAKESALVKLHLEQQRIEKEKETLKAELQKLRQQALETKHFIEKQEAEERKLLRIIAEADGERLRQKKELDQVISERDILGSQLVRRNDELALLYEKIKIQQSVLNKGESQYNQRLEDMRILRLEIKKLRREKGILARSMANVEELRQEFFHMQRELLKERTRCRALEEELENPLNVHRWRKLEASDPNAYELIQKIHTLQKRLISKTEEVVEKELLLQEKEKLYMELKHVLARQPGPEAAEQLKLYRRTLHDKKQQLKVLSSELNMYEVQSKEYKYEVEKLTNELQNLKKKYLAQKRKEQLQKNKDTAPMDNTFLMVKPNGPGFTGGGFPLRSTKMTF
UniProt Q6ZMG9: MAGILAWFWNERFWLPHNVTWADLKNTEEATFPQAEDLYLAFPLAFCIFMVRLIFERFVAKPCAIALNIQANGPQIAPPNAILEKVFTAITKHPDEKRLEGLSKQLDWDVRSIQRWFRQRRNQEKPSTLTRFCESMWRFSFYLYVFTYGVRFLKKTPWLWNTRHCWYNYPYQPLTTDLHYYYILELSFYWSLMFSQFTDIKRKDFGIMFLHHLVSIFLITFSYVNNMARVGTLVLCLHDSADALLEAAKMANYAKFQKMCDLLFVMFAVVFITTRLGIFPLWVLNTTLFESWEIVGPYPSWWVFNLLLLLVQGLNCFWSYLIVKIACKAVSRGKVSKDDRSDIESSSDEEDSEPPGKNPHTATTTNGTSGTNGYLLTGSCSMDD
UniProt Q9BWU1: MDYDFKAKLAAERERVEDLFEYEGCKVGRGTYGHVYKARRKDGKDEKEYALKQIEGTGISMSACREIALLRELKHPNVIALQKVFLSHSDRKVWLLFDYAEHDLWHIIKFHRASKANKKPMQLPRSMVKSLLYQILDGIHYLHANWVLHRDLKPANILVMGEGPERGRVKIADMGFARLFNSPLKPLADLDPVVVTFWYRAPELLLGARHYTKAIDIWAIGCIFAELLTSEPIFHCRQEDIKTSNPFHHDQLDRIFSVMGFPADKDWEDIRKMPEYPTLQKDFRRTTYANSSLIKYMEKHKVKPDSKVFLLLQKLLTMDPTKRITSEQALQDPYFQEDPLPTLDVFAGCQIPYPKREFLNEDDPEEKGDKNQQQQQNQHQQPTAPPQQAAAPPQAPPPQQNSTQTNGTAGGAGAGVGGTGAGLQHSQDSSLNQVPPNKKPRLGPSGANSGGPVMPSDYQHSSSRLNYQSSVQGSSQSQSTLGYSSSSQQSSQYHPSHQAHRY
UniProt Q5VXU3: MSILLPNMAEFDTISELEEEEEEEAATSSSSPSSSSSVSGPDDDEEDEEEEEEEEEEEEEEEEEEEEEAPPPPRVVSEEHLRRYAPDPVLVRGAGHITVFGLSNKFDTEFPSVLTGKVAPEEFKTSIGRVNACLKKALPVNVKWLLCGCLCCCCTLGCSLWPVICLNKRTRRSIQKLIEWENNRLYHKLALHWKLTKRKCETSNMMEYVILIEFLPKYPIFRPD
UniProt Q9UKJ5: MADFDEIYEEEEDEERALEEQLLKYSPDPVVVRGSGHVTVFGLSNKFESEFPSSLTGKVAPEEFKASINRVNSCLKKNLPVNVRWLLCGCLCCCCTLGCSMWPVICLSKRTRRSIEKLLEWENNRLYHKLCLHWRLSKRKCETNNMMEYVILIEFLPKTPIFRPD
UniProt O14519: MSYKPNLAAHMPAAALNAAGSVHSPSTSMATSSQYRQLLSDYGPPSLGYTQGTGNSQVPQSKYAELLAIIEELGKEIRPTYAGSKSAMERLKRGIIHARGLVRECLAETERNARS
UniProt Q8TDI0: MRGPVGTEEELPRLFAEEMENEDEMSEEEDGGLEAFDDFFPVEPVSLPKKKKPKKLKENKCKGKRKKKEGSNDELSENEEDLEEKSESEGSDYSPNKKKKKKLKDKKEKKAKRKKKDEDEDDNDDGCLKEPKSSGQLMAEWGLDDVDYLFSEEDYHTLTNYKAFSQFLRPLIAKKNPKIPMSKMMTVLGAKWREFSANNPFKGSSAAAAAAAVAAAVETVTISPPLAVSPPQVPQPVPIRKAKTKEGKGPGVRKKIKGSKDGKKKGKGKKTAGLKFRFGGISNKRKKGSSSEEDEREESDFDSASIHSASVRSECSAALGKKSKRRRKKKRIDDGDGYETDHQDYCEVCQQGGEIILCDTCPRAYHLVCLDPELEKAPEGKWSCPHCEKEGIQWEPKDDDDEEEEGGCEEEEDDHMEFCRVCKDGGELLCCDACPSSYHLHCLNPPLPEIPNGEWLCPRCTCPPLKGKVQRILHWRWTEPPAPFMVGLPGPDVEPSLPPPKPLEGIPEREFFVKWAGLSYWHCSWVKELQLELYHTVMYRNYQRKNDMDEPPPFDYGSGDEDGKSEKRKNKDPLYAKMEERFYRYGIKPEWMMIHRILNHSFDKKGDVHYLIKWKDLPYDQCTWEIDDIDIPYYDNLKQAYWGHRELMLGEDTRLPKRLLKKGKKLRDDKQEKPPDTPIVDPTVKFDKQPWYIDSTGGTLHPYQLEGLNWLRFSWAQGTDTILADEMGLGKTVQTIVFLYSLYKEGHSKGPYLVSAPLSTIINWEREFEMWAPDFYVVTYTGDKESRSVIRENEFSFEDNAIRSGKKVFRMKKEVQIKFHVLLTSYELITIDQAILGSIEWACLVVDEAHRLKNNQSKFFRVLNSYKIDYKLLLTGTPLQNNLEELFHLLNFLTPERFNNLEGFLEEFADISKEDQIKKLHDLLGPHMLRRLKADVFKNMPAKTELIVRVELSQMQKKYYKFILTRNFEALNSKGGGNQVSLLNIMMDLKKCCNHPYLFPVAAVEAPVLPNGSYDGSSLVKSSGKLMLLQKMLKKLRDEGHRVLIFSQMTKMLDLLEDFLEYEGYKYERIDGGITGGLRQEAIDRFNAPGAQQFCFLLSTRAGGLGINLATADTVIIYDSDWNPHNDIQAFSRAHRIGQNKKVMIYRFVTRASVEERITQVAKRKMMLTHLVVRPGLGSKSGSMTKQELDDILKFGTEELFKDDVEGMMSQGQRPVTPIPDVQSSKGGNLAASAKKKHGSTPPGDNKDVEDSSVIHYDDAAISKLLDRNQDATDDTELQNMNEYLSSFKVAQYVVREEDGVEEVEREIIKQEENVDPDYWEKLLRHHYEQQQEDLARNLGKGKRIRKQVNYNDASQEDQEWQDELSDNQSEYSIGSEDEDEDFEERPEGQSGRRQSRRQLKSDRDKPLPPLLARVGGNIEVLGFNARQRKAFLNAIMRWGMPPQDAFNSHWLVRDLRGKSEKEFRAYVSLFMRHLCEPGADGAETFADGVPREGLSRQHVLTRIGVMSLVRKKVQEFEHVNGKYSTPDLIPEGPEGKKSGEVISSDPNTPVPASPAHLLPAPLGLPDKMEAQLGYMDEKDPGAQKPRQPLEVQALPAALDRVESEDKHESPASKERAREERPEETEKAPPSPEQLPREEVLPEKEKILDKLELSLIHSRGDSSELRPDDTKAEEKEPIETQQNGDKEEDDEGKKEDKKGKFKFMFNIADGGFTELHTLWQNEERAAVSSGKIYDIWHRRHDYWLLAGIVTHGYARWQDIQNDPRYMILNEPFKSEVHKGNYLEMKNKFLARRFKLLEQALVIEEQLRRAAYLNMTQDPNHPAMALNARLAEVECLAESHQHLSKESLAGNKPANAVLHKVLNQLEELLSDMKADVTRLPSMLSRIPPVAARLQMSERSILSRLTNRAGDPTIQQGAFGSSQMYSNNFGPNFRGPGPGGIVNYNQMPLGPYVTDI
UniProt Q9H3Q1: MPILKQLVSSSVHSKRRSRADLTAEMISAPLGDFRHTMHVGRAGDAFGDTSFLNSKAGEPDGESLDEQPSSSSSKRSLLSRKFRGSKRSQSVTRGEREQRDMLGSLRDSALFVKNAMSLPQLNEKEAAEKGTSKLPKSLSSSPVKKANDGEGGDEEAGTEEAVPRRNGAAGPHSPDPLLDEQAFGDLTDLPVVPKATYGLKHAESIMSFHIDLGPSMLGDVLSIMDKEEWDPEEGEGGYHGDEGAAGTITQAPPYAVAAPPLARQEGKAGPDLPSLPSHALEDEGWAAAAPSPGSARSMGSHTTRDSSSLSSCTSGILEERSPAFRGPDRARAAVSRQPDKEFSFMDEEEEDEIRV
UniProt P00751, whole entry, looked up: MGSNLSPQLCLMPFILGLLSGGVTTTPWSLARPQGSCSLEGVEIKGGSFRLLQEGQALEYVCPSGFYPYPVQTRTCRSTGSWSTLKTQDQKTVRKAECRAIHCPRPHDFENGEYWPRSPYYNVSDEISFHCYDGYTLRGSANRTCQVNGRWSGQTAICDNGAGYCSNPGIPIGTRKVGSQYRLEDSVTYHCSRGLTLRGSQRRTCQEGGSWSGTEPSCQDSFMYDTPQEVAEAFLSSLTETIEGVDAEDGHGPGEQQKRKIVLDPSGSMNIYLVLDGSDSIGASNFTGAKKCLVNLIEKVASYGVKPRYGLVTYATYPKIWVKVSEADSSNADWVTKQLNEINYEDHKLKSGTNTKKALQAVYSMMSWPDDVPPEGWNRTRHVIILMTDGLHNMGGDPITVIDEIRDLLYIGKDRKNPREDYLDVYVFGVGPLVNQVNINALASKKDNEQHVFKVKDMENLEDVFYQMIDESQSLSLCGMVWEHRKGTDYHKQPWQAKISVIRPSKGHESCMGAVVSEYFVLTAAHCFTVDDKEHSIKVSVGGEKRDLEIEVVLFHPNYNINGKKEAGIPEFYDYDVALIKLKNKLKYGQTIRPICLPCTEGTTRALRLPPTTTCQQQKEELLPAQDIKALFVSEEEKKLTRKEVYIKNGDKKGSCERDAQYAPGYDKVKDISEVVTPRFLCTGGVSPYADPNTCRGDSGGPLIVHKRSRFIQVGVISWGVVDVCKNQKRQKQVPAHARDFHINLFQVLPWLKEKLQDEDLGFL
UniProt Q6P2H3: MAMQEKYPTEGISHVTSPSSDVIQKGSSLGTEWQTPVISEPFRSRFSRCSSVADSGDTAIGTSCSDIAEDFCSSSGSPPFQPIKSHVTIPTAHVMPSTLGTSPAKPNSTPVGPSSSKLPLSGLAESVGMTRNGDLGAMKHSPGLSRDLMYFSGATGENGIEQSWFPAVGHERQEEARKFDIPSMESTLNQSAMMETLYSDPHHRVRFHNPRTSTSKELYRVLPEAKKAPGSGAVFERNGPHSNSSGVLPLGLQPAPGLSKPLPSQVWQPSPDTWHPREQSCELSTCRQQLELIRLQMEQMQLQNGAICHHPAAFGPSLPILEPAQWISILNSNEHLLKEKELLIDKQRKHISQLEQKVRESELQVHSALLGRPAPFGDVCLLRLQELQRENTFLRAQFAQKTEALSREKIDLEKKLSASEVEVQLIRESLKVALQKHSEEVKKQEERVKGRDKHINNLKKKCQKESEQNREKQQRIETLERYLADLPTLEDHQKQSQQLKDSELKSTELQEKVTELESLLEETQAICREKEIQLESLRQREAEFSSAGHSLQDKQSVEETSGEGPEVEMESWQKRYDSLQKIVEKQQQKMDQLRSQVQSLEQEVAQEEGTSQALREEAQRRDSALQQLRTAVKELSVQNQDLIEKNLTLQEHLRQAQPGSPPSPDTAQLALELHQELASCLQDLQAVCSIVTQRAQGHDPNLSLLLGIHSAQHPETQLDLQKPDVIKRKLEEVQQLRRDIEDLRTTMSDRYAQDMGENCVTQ
UniProt A8MTT3: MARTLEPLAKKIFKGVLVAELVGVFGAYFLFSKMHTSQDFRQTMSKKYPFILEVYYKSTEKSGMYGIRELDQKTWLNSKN
UniProt P53567: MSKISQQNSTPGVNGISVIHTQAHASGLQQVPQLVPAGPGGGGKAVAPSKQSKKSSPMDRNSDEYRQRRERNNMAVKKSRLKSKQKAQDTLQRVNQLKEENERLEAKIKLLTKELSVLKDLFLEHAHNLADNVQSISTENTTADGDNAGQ
UniProt Q9BS16: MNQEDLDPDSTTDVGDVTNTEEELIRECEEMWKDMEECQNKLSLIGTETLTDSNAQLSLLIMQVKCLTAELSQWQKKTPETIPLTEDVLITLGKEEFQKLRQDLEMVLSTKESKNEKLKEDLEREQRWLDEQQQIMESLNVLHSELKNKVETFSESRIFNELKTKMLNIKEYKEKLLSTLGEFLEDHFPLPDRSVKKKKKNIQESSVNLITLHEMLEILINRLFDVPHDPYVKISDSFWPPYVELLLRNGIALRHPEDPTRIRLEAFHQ

The targets below were run with COc1cccc2cc(-c3nc([C@H]4CC[C@H](C(=O)O)CC4)n4ncnc(N)c34)[nH]c12 (assay: log2 fold change, soluble protein after heating vs DMSO (PISA); higher = thermal stabilisation; K562 cells, 10 uM, 30 min; active = over 0.2 and 3.5 SD of the protein, either way, in both replicates (recomputed)).
Method in brief: (§1)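 K562 cells at 2×10^6 cells/mL were exposed to 10 μM compound for 30 min, then aliquots were heated for 3 min across 48°C-58°C, pooled, and extracted in PBS containing 0.5% NP-40 at 4°C. The supernatant after 21,000xg for 90 min was taken as soluble protein and measured by TMTpro 16plex LC-MS/MS with channel sums equalised. Thermal stability is reported relative to control samples, with values from duplicates. Fold changes are given on a log2 scale.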

Row | Target | log2 fold change
1 | CHFR (UniProt Q96EP1) | inactive: -0.271
2 | CEP57 (UniProt Q86XR8) | inactive: -0.19
3 | CDS1 (UniProt Q92903) | inactive: -0.069
4 | CDC42SE2 (UniProt Q9NRR3) | inactive: -0.151
5 | CHMP2A (UniProt M0R1T5) | inactive: 0.258
6 | CENPQ (UniProt Q7L2Z9) | inactive: -0.135
7 | CFAP58 (UniProt Q5T655) | inactive: 0.032
8 | CERS6 isoform 2 (UniProt Q6ZMG9) | inactive: 0.081
9 | CDK19 (UniProt Q9BWU1) | inactive: -0.045
10 | CEBPZ (UniProt Q03701) | inactive: -0.108
11 | CHIC1 (UniProt Q5VXU3) | inactive: 0.138
12 | CHIC2 (UniProt Q9UKJ5) | inactive: -0.069
13 | CEFIP (UniProt Q711Q0) | inactive: 0.037
14 | CDK2AP1 (UniProt O14519) | inactive: 0.074
15 | CHD5 (UniProt Q8TDI0) | inactive: -0.195
16 | CDKN1C (UniProt P49918) | inactive: -0.408
17 | CDC42EP4 (UniProt Q9H3Q1) | inactive: 0.095
18 | CFB (UniProt P00751) | inactive: 0.201
19 | CDC42EP3 (UniProt Q9UKI2) | inactive: 0.01
20 | CDH5 (UniProt P33151) | inactive: 0.01
21 | CHCHD10 (UniProt Q8WYQ3) | inactive: 0.051
22 | CEP85 (UniProt Q6P2H3) | inactive: 0.221
23 | CEBPZOS (UniProt A8MTT3) | inactive: 0.098

The targets below were run with CS(=O)(=O)CCNCc1ccc(-c2ccc3ncnc(Nc4ccc(OCc5cccc(F)c5)c(Cl)c4)c3c2)o1 [lapatinib] in the same assay as above.
Method in brief: as §1

Row | Target | log2 fold change
24 | CHFR (UniProt Q96EP1) | inactive: 0.326
25 | CEND1 (UniProt Q8N111) | inactive: -0.024
26 | CFAP47 (UniProt Q6ZTR5) | inactive: -0.106
27 | CDC42SE2 (UniProt Q9NRR3) | inactive: -0.016
28 | CENPV (UniProt Q7Z7K6) | inactive: 0.329
29 | CHMP2A (UniProt M0R1T5) | inactive: 0.061
30 | CFAP58 (UniProt Q5T655) | inactive: 0.001
31 | CERS6 isoform 2 (UniProt Q6ZMG9) | inactive: 0.012
32 | CDH2 (UniProt P19022) | inactive: -0.254
33 | CEBPG (UniProt P53567) | inactive: 0.017
34 | CDK19 (UniProt Q9BWU1) | inactive: -0.192
35 | CHIC1 (UniProt Q5VXU3) | inactive: -0.092
36 | CHIC2 (UniProt Q9UKJ5) | inactive: -0.059
37 | CEFIP (UniProt Q711Q0) | inactive: 0.046
38 | CDK2AP1 (UniProt O14519) | inactive: 0.05
39 | CHD5 (UniProt Q8TDI0) | inactive: -0.035
40 | CDC42EP4 (UniProt Q9H3Q1) | inactive: 0.033
41 | CHCHD10 (UniProt Q8WYQ3) | inactive: 0.094
42 | CEP85 (UniProt Q6P2H3) | inactive: 0
43 | CENPK (UniProt Q9BS16) | inactive: -0.062
44 | CEBPZOS (UniProt A8MTT3) | inactive: -0.037

These targets were tested with CS(=O)(=O)N1CCN(Cc2cc3nc(-c4cccc5[nH]ncc45)nc(N4CCOCC4)c3s2)CC1 [pictilisib] in the same assay as above.
Method in brief: as §1

Row | Target | log2 fold change
45 | CEP57 (UniProt Q86XR8) | inactive: -0.175
46 | CENPV (UniProt Q7Z7K6) | inactive: -0.029
47 | CDR2L (UniProt Q86X02) | inactive: 0.162
48 | CFAP58 (UniProt Q5T655) | inactive: 0.122
49 | CERS6 isoform 2 (UniProt Q6ZMG9) | inactive: -0.103
50 | CDH2 (UniProt P19022) | inactive: -1.28
51 | CEBPG (UniProt P53567) | inactive: 0.238
52 | CDK19 (UniProt Q9BWU1) | inactive: 0.073
53 | CEBPZ (UniProt Q03701) | inactive: 0.117
54 | CHD1 (UniProt O14646) | inactive: 0.081
55 | CHIC1 (UniProt Q5VXU3) | inactive: 0.018
56 | CHIC2 (UniProt Q9UKJ5) | inactive: 0.19
57 | CDK2AP1 (UniProt O14519) | inactive: 0.029
58 | CHD5 (UniProt Q8TDI0) | inactive: 0.054
59 | CHD1L (UniProt Q86WJ1) | inactive: -0.322
60 | CDKN1C (UniProt P49918) | inactive: 0.006
61 | CDC42EP4 (UniProt Q9H3Q1) | inactive: 0.02
62 | CFB (UniProt P00751) | inactive: -0.319
63 | CFL1 (UniProt E9PP50) | inactive: 0.105
64 | CEP85 (UniProt Q6P2H3) | inactive: -0.034
65 | CER1 (UniProt O95813) | inactive: -0.831
66 | CEBPZOS (UniProt A8MTT3) | inactive: -0.045
